# Only a part is listed here, and it is no random draw. The source made the active and inactive calls. No stated cut-off is given here; in the data, active means z-score above about 3 (passing the limit was not always enough); inactive means the rest.
# Sequences of proteins named here, by UniProt entry; tags and fusion partners are left off. A change or cut given only in a name is not applied to a line headed by its entry.
# UniProt Q9UPY3: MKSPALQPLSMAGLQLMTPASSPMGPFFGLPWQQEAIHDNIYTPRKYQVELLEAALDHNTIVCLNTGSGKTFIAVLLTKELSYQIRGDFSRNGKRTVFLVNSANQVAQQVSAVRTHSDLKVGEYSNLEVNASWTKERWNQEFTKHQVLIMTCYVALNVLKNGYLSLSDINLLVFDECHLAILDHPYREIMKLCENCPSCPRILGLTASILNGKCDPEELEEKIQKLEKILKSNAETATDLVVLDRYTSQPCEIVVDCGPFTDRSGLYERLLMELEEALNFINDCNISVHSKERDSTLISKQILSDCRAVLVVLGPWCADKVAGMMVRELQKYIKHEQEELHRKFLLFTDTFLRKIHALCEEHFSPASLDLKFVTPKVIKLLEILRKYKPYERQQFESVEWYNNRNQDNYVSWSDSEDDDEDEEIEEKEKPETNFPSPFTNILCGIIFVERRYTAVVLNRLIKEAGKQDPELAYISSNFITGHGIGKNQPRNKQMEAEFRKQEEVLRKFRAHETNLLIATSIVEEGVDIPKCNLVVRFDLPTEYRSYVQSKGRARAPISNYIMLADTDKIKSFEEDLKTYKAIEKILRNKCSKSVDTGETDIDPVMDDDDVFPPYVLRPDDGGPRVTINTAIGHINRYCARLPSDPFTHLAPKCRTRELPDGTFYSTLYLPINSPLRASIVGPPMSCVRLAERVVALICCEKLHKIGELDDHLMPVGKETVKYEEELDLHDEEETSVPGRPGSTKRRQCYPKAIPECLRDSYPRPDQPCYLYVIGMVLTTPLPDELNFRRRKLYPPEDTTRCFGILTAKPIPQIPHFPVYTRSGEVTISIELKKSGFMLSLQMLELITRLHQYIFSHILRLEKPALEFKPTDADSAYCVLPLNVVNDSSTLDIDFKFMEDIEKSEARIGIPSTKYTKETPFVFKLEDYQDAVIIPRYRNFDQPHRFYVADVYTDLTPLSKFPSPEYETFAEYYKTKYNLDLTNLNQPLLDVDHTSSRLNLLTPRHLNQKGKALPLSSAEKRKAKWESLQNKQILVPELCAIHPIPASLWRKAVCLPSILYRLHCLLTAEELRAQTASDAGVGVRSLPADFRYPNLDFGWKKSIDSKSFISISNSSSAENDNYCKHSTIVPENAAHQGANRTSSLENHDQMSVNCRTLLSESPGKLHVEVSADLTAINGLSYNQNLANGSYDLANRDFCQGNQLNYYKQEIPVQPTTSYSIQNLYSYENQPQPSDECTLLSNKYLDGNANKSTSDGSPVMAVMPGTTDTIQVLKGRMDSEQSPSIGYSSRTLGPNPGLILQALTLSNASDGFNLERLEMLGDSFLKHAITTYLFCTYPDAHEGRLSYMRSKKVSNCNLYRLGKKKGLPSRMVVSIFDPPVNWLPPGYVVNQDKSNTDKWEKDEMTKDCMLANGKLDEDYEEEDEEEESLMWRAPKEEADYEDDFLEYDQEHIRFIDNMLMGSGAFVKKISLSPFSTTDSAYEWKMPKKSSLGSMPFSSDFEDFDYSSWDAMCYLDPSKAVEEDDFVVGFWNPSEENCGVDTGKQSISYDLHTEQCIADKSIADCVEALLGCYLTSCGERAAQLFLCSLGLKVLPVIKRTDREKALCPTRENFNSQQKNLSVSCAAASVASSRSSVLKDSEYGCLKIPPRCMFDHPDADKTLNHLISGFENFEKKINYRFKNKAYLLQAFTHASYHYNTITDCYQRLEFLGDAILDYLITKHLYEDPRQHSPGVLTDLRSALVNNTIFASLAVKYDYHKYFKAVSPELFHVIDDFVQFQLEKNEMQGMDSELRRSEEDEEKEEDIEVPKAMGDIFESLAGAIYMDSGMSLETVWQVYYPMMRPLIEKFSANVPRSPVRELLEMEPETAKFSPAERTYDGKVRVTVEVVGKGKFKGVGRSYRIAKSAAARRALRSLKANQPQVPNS
# Molecular target: Endoribonuclease Dicer (Homo sapiens) (UniProt Q9UPY3)
# Assay: inhibitors of Dicer pre-microRNA processing, primary screen, biochemical, cat-ELCCA, chemiluminescence (AID 1347074);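 further: plate controls were vehicle for no effect and no enzyme for full effect; higher signal means more uncleaved substrate so more Dicer inhibition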
# Conditions: cat-ELCCA pre-miR-21 Dicer processing, at 25 µM, stronger effect = higher value
row,SMILES,z-score
1,O=C1NC(=O)c2c1c(-c1ccccc1)cc1[nH]c3ccc(O)cc3c21,active: 9.76

# Reference: PubChem BioAssay AID1347074 (Center for Chemical Genomics, University of Michigan, 2019)
